Laboratory results published in publication PMC6372715.
Results are given in words; binding and its absence hold for the method and conditions named. In cells and extracts the contact can be indirect. Some entries that bind do so weakly or less than the wild type.

Amino acid sequences for entries named in this document (tags omitted). A change or cut given only in a name is not applied to a line headed by its entry.
UniProt Q9UQC2: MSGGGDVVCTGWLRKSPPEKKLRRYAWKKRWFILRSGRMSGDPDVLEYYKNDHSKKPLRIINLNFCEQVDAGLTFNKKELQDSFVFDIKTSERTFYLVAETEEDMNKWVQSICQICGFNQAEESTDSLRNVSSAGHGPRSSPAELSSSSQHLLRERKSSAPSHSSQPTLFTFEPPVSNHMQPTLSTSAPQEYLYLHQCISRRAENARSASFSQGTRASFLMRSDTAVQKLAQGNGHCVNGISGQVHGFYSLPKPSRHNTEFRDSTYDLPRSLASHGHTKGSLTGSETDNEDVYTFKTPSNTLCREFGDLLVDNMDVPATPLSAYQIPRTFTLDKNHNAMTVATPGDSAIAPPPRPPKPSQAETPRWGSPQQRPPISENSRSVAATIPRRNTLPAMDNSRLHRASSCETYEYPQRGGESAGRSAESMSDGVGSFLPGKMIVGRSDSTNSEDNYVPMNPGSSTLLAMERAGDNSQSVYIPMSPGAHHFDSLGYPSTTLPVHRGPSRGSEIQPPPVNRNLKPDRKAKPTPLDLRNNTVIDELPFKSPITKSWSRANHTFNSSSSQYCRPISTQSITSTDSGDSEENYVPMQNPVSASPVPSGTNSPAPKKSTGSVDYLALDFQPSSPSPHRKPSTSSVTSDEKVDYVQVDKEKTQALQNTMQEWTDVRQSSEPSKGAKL
UniProt P40763: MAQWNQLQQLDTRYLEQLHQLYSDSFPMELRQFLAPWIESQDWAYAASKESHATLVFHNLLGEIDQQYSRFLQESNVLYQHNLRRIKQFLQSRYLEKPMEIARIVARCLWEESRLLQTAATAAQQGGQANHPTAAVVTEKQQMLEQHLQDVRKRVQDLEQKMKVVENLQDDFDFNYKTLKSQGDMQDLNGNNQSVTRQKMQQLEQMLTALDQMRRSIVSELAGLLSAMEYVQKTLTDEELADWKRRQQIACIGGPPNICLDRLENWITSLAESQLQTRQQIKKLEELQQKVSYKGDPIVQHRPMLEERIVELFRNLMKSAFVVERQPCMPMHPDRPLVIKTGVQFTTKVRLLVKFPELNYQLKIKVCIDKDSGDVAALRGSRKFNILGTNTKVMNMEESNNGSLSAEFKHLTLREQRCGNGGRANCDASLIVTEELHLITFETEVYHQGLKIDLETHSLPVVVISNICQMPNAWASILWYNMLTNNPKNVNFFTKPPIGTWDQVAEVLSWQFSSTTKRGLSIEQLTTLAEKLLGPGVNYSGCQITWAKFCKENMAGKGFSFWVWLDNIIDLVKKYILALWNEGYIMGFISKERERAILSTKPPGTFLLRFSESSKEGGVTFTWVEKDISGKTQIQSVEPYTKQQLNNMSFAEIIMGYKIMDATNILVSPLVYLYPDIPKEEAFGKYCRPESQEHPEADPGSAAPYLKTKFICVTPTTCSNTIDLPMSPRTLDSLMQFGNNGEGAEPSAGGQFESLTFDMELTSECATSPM

Experiments:
[1] = target: p110α catalytic subunit of PI3K (human (endogenous in OAW28)) (UniProt P42336); assay: co-IP; IP of p110α from OAW28 cells transfected with PIK3R1 siRNA or controls; western blotting
[2] = target: Grb2-associated binder 2 (Gab2) (human (endogenous in SKOV3 and OAW28)) (UniProt Q9UQC2); assay: proximity ligation; Duolink PLA in fixed, permeabilised SKOV3 cells transfected with PIK3R1 siRNA or controls; pairs of primary antibodies; spots per nucleus counted
[3] = target: HA-tagged Gab2 S623A mutant (UniProt Q9UQC2); assay: co-IP; IP with HA antibody from OVCAR5 cells transfected with HA-tagged wild-type GAB2 or GAB2 S623A; empty vector as control; western blotting
HA-tagged wild-type Gab2 = HA-tagged wild-type Gab2 (UniProt Q9UQC2); assay: as above
[4] = target: Grb2-associated binder 2 (Gab2) (human (endogenous in SKOV3 and OAW28)) (UniProt Q9UQC2); assay: co-IP; IP with Gab2 antibody from total lysates of SKOV3 cells (PIK3R1 siRNA or controls; in Fig. 6d with or without PTEN overexpression plasmid); IP lysis buffer 50 mM Tris, 150 mM NaCl, 0.5% NP-40, 5 mM EDTA; protein A/G agarose; western blotting

Substance | binding [1] | binding [2] | binding [3] | binding (HA-tagged wild-type Gab2) | binding [4]
EGFR (from UniProt P00533 25-1210) (receptor) | binds | – | – | – | –
STAT3 (from UniProt P40763 1-770) | – | binds | binds | binds | binds
Grb2-associated binder 2 (Gab2) (from UniProt Q9UQC2 1-676) | binds | – | – | – | –
